# Percent effect of library compounds

Source: ChEMBL document CHEMBL3988442, “University of Dundee, Small-Polar-MMV Screening Library” (2021).

Results are given as percent effect. The record does not define 0% and 100%; most values in the screen are far below 50% and negative numbers occur (in some assays of this library far below -100). This is an unselected part of the compounds tested. Two or more numbers in one place are separate tests of the same structure; such repeats can differ widely.

Mtb glucose medium: 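Whole-cell growth test on Mycobacterium tuberculosis, read after 3 days in glucose-containing 7H9 medium; the read-out is not stated. Tested at 50 µM. Direction is inferred from retests: higher values go with more growth inhibition. Size under these conditions: about 69,000 compounds, about 760 of them at 50% or above in at least one test.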
Mtb cholesterol medium: 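Growth of Mycobacterium tuberculosis over 4 days (cholesterol / DPPC medium with tyloxapol); the read-out is not stated. Concentration: 50 µM. The record gives no direction; compounds that gave an IC50 in retests scored well above the rest, so higher reads as more growth inhibition. Size under these conditions: about 69,000 compounds, about 370 of them at 50% or above in at least one test.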

Compound	Mtb glucose medium	Mtb cholesterol medium
CCCN1CCN(C(=O)c2ccn(COc3ccc(F)cc3)n2)CC1	12.25	10.46
CN(CC1(O)CCCN(c2ccccn2)C1)C(=O)Cc1ccsc1 (stereo not shown)	23.58	-19.53
O=C(CCCn1ccnc1)NC1CCCN(c2ccccc2Cl)C1 (stereo not shown)	11.68	5.534
CS(=O)(=O)c1cn[nH]c1C1CCCCN1C(=O)Cc1cccnc1 (stereo not shown)	-10.52	-36.42
COC(=O)C(NC(=O)c1ccc(N(C)C)nc1)c1ccccc1 (stereo not shown)	44.87 and 55.96	56
Cc1c(CNC(=O)Nc2cccc3c2CCN3C)cnn1C	19.8	-24.79
COc1cc(C)nc(N2CCN(C(=O)c3ccoc3C)CC2)n1	15.15	-13.28
O=C(O)C(F)(F)F.O=C(O)C(F)(F)F.[H][C@@]12CCN(Cc3ccsc3)[C@]1([H])CC[C@H](C(=O)N1CCN(C)CC1)O2	3.788 and -12.43	9.369
CN(C)S(=O)(=O)N1CCC2(COCc3cnc(-c4ccccc4)nc32)C1 (stereo not shown)	25.48	8.159
O=C(Cc1ccccn1)N1CCC2(CC1)CN(CC1CC1)C(=O)CO2.O=C(O)C(F)(F)F	-5.481 and 2.434	0.8374
CN(C)CCOCC1CN(C(=O)c2cscn2)Cc2ccnn2C1 (stereo not shown)	15.54 and -3.6	0.781
Cc1cnc(N2CCC3(CCC(C(=O)NC(C)C)C3)CC2)nc1.O=C(O)C(F)(F)F (stereo not shown)	19.12 and 10.64	8.352
O=C(O)C(F)(F)F.[H][C@@]12CN(C(=O)c3ccoc3)C[C@@]1([H])N(Cc1cccnc1)C(=O)CO2	-0.5029 and -0.6371	-0.8816 and -8.74
CN(Cc1noc(C2CC2)n1)C1CCN(Cc2ccc(F)c(F)c2)C1 (stereo not shown)	15.45	2.957
CS(=O)(=O)c1ccc(OCCNCc2ccc(F)cc2F)cc1	-3.696	-5.265
Cc1cc(C)n(C2CN(c3nc(N)nc4c3CCCC4)C2)n1	22.87 and -0.6565	13.11
CCCN(C(=O)COC)c1nc2c(s1)CCc1c-2cnn1C	17.3	-0.6278
Cc1cc(C)n(CC2CCCN2CC(=O)Nc2cc(C(C)C)no2)n1 (stereo not shown)	-30.15	-29.25
O=C1NC2(CCc3ccccc31)CCN(C(=O)c1cccnc1)C2 (stereo not shown)	-14.92	-9.343 and -4.458
Cc1noc([C@@H](C)NCc2ccc(F)cc2)c1C(=O)O.Cl	10.27 and -0.8017	-3.319
CN(CCc1cn[nH]c1)Cc1nc(Cc2cccc(F)c2)no1	17.1	-7.694
CCOc1ccccc1C(=O)NCCC(O)c1ccoc1 (stereo not shown)	-10.34	-2.797
COc1cccc(C(=O)N2CCOC3(CCCN(C(C)=O)C3)C2)c1 (stereo not shown)	6.045	101.2 and -8.513
Cc1nc2ccccc2n(Cc2nnnn2C2CC2)c1=O	-12.59	-9.019
CCN(CC)CCCNCC1CCOC(C)(C)C1 (stereo not shown)	-4.836	-9.672
COc1nc2ccccc2cc1CN1CCC(CNS(C)(=O)=O)C1 (stereo not shown)	6.613 and 7.585	0.2961 and 2.624
COCCOc1ncccc1C(=O)Nc1ccc(-n2cncn2)c(F)c1	-5.394	-4.577
CCOC(=O)c1cnn(-c2cc(Oc3ccccc3)ncn2)c1N	14.48	16.36
Cc1nc2ccccn2c1CC(=O)N[C@@H]1CC[C@@H](N2CCOCC2)[C@@H]1O	-2.192	-0.8445
Cc1cccnc1N1CCC(c2nccn2Cc2cscn2)CC1	8.748	-2.343 and 3.798
O=C(c1cc(F)ccc1Br)N1CCN(C(=O)C2CC2)CC1	-16.53	-10.7
CC(C)Cn1cnnc1C1CCCN1C(=O)OC(C)(C)C (stereo not shown)	14.35	-12.7
CCCC1COCCN1Cc1ccc(C(=O)O)cc1 (stereo not shown)	9.7	-5.282
Cc1nnsc1C(=O)N1CCCC(c2nccn2Cc2cscn2)C1 (stereo not shown)	-15.3	5.111 and -14
O=C(O)C(F)(F)F.c1cncc(C2CC3(CCN(c4cnccn4)CC3)c3ccccc32)c1 (stereo not shown)	5.455 and 21.61	3.435
CCc1nc(CN2CCCN(c3nn4cc(C)nc4s3)CC2)no1	-4.674	-22.87
[H][C@@]12CN(C3CCOCC3)C[C@@]1([H])N(Cc1ccncc1)C(=O)CO2	5.682	3.899
NC(=O)N1CCCN(CC(=O)NCCc2c(F)cccc2F)CC1	-6.027	-7.297 and -11.98
CCN(C)S(=O)(=O)NC(C)c1cnc(N(C)C2CCCCC2)nc1C (stereo not shown)	5.927 and 6.309	-12.64 and 9.929
O=C(O)C(F)(F)F.[H][C@@]12CCN(C3CCOCC3)C[C@]1([H])O[C@H](C(=O)N1CCCC1)C2	17.02	16.38
Cc1ccc(NC(=O)N2CCN(Cc3noc(C4CC4)n3)CC2)cc1	-30.65	-16.25
CC(=O)c1c(N(C)C)ccnc1C(F)(F)F	23.37	22.79
O=C(O)C(F)(F)F.[H][C@@]12CN(C(=O)c3cccs3)C[C@]1([H])OCCN2CC1CCCO1 (stereo partly shown)	-11.07	-12.41
Cl.O=c1c2sccc2nc2n1CCN(Cc1ccccc1C(F)(F)F)CC2	28.7	120.3
CNC(=O)c1ccc(C(=O)N2CCCC(n3cc(C)cn3)C2)cn1 (stereo not shown)	11.56	10.58
Cc1nc(CN(C)Cc2nc(-c3ccccc3)no2)co1	24.8	10.62
Cc1ccc(C(C)NC(=O)CCc2cnn(C)c2)cc1F (stereo not shown)	6.52	18.79
O=C(O)C(F)(F)F.[H][C@@]12C[C@H](C(=O)NC)CN(CCOc3ccc(Cl)cc3)[C@]1([H])CCO2	-8.96 and -2.633	-1.918 and -8.955